Our source for the intracellular bacterial bioluminescence values is the supplement of paper PMC12578635.

Structures are written as SMILES. The list shows a part of the results. Rule as the data show it: active = 150% or more and inactive = the rest. Single values are uncertain, as repeats are few or missing.

The test system of the experiment is Staphylococcus aureus JE2-lux inside RAW 264.7 macrophages. Briefly: intracellular bacterial bioluminescence relative to DMSO vehicle; higher = higher intracellular bacterial metabolic activity. The note with it: 10 µM; treatment time 4 h; gentamicin 50 µg/ml.
In the case of `O=C(COc1ccccc1)Nc1nc2ccccc2s1`, the intracellular bacterial bioluminescence is inactive: 93.9%.

With `COCCCNC(=O)CN1CCN(c2ncc(NC(=O)c3ccc(Cl)cc3)cc2C(=O)O)CC1`, the intracellular bacterial bioluminescence is inactive: 105%.

Turning to `CC(=O)c1ccc(NC(=O)c2ccc(S(=O)(=O)N3CCC(C)CC3)cc2)cc1`, the intracellular bacterial bioluminescence is inactive: 75.7%.

In the case of `Cc1cc(C)cc(-n2nc3c(c2NC(=O)/C=C\c2ccc4c(c2)OCO4)CSC3)c1`, the intracellular bacterial bioluminescence was inactive: 83.9%.

As to `O=C(O)c1cccnc1SC1CC(=O)N(c2ccc(Cl)cc2[N+](=O)[O-])C1=O` (stereo not given), the intracellular bacterial bioluminescence was inactive: 94.4%.

As to `Fc1ccc(-c2ccc(/C=N/n3cnnc3)o2)cc1`, the intracellular bacterial bioluminescence was inactive: 97.6%.

In the case of `O=C(NCc1ccc(F)cc1)C1CCN(C(=O)Nc2cccc(Cl)c2)CC1`, the intracellular bacterial bioluminescence is inactive: 79.9%.

For `CC(=O)Nc1cccc(NC(=O)C(=O)NCCSc2nc(-c3ccccc3)c[nH]2)c1`, the intracellular bacterial bioluminescence is inactive: 109%.

As for `COc1ccccc1CNC(=O)C1c2ccccc2C(=O)N1Cc1cccnc1` (stereo not given), the intracellular bacterial bioluminescence is inactive: 132%.

As to `CCCn1c(=N)c(C(N)=S)cc2c(=O)n3cccc(C)c3nc21`, the intracellular bacterial bioluminescence is inactive: 127%.

Turning to `O=C(CSc1nnc2c3ccccc3nc(Cc3ccccc3)n12)Nc1nccs1`, the intracellular bacterial bioluminescence is inactive: 128%.

`COc1ccccc1CCNC(=O)c1c(O)nc2cc(C)ccn2c1=O`: the intracellular bacterial bioluminescence was inactive: 118%.

As for `CCN1C(=O)c2cccc3c(S(=O)(=O)Nc4ccccc4OC)ccc1c23`, the intracellular bacterial bioluminescence is inactive: 137%.

Take `CCSc1nnc(NC(=O)CSc2nnc(C)c(=O)n2N)s1`: the intracellular bacterial bioluminescence is inactive: 81.3%.

`O=C1CCc2cc(S(=O)(=O)NCC(c3ccccc3)N3CCOCC3)ccc2N1` (stereo not given): the intracellular bacterial bioluminescence is inactive: 103%.

With `Cc1ccc2nnc(-c3ccccc3)c(C(=O)NCc3ccc4c(c3)OCO4)c2c1`, the intracellular bacterial bioluminescence is inactive: 81%.

For `CCc1cccc(C)c1NC(=O)Cn1c(=O)c2cccnc2n(-c2ccccc2)c1=O`, the intracellular bacterial bioluminescence was inactive: 97.1%.

Take `O=C(CSc1nc2ccccc2[nH]1)c1cccs1`: the intracellular bacterial bioluminescence was inactive: 97.9%.

For `CCN(CC)CCCNc1ncnc2sc3c(c12)CC(C)CC3` (stereo not given), the intracellular bacterial bioluminescence is inactive: 120%.

For the compound `Cc1ccc(NC(=O)N2CCC(n3cnc4cccnc43)CC2)cc1Cl`, the intracellular bacterial bioluminescence was inactive: 35.9%.

Regarding `O=C(CSc1nnc2[nH]c(=O)ccn12)NCc1ccccc1Cl`, the intracellular bacterial bioluminescence was inactive: 104%.

Turning to `COc1ccnc(Cn2nc3c4c5c(sc4ncn3c2=O)CC(C)CC5)c1OC` (stereo not given), the intracellular bacterial bioluminescence was inactive: 36.8%.

With `CCN(C(=O)c1ccccn1)c1nc2c(s1)CCc1oc(C)cc1-2`, the intracellular bacterial bioluminescence is inactive: 90.2%.

For the compound `O=C(Nc1ccc2c(c1)CCC2)c1cccc2nccnc12`, the intracellular bacterial bioluminescence is inactive: 94.8%.

Consider `COc1ccc(NC(=O)CSc2nnc3c(C)cc4ccccc4n23)cc1`, for which the intracellular bacterial bioluminescence was inactive: 97.7%.

`Cc1ccc(N2C(=O)c3cc4ccsc4n3CC2(C)C(=O)NC2CCCC2)c(Cl)c1` (stereo not given): the intracellular bacterial bioluminescence was inactive: 70.7%.

Consider `COc1ccc2sc(Nc3cccc(Br)c3)nc2c1`, for which the intracellular bacterial bioluminescence was inactive: 136%.

Regarding `COCCNC(=O)c1cnc2c(OC)cc(OC)cc2c1O`, the intracellular bacterial bioluminescence was inactive: 110%.

As to `Cc1ccc(C)c(S(=O)(=O)Nc2ccc(O)c3ccccc23)c1`, the intracellular bacterial bioluminescence was inactive: 85.8%.

Consider `O=C1N/C(=N/c2ccc(O)cc2)S/C1=C\c1cccnc1`, for which the intracellular bacterial bioluminescence is inactive: 94.2%.

`CC(=O)Nc1ccc(NS(=O)(=O)c2c[nH]c(=O)[nH]c2=O)cc1`: the intracellular bacterial bioluminescence is inactive: 112%.

As to `COc1ccc(Nc2ncnc3sc(C(=O)O)c(C)c23)cc1Cl`, the intracellular bacterial bioluminescence was inactive: 102%.

Turning to `Cc1sc2nc(C(C)C)n(C3CCN(C(=O)c4ccco4)CC3)c(=O)c2c1C`, the intracellular bacterial bioluminescence was inactive: 30.3%.

On to `Cc1ccccc1C1C2=C(COC2=O)Nc2c1c(=O)[nH]c(=O)n2C` (stereo not given), for which the intracellular bacterial bioluminescence was inactive: 138%.

Take `COC(=O)C1CCN(C(c2ccc(Cl)c(Cl)c2)c2sc3nc(C)nn3c2O)CC1` (stereo not given): the intracellular bacterial bioluminescence is inactive: 97.5%.

In the case of `Cc1cc(Sc2ccc(N)cc2)n2nc(C)nc2n1`, the intracellular bacterial bioluminescence was inactive: 98.2%.

Consider `NC(=O)C1CCCN(C(=O)c2ncoc2-c2cccc(F)c2)C1` (stereo not given), for which the intracellular bacterial bioluminescence was inactive: 112%.

With `COc1ccc(S(=O)(=O)NCc2ccco2)cc1[N+](=O)[O-]`, the intracellular bacterial bioluminescence was inactive: 103%.

In the case of `CCOC(=O)c1nn(-c2ccccc2)c(=O)c2c(NC(=O)C(C)Oc3ccccc3)scc12` (stereo not given), the intracellular bacterial bioluminescence is inactive: 97.2%.

Turning to `CC1=C(C(=O)OCc2ccccc2)C(c2ccc(Cl)cc2)C(C#N)=C(N)O1` (stereo not given), the intracellular bacterial bioluminescence was inactive: 96.2%.

As for `O=C(NCc1ccc2c(c1)OCO2)C1CCCN1C(=O)Nc1ccc(Cl)cc1` (stereo not given), the intracellular bacterial bioluminescence is inactive: 97.5%.

For `Cc1n[nH]c(SCCNCc2cc3c(C)nn(-c4ccc(F)cc4)c3[nH]c2=O)n1`, the intracellular bacterial bioluminescence was inactive: 102%.

Turning to `COc1ccccc1-n1c(SCC(=O)Nc2cccc3ccccc23)nc2c(c1=O)SCC2`, the intracellular bacterial bioluminescence was inactive: 13.7%.

For `CCc1cccc(C)c1Nc1nc(N)c(C(=O)CC(C)C)s1`, the intracellular bacterial bioluminescence is inactive: 106%.

Take `COc1ccc(/C=C/C(=O)O)cc1S(=O)(=O)NCc1ccc2c(c1)OCO2`: the intracellular bacterial bioluminescence was inactive: 94.5%.

In the case of `O=C(Nc1ccc(F)cc1)c1c(O)c2ccccc2[nH]c1=O`, the intracellular bacterial bioluminescence was inactive: 121%.

In the case of `COc1cccc(NC(=O)CSc2nn3c(=O)c(C)nnc3s2)c1`, the intracellular bacterial bioluminescence is inactive: 106%.

Turning to `COc1cccc(NC(=O)c2ccc(COc3cccc(C)c3)o2)c1`, the intracellular bacterial bioluminescence was inactive: 107%.

For the compound `CC1(C)CC(=O)C2=C(C1)OC(N)=C(C#N)C2Cc1ccccc1` (stereo not given), the intracellular bacterial bioluminescence was inactive: 86.4%.

As for `O=c1c2sccc2n2c(=S)[nH]nc2n1CC1CCCO1` (stereo not given), the intracellular bacterial bioluminescence was inactive: 84.7%.

Turning to `CC(C(=O)Nc1nc2c(s1)CCc1c-2cnn1C)N1C(=O)CSC1=O` (stereo not given), the intracellular bacterial bioluminescence was inactive: 113%.

As for `O=C(NCc1cccnc1)c1cnc2ccc(F)cc2c1O`, the intracellular bacterial bioluminescence was inactive: 118%.

For `COc1cccc(-n2c(C)c(C)n3c4c(=O)n(CC(=O)OCc5ccccc5)c(=O)n(C)c4nc23)c1`, the intracellular bacterial bioluminescence was inactive: 77.1%.

Turning to `Cc1cccc(NC(=O)c2sc3nc(-c4ccccc4)cn3c2C)c1`, the intracellular bacterial bioluminescence is inactive: 80.5%.

Consider `CN(c1ncnc(N)c1[N+](=O)[O-])C1CCCCC1`, for which the intracellular bacterial bioluminescence is inactive: 117%.

Consider `Cc1ccc(CSc2nc(=O)n3ccc(C)cc3n2)cc1`, for which the intracellular bacterial bioluminescence is inactive: 51.4%.

Take `Cc1cc(C)n2c(SCC(=O)Nc3cccc4ccccc34)nnc2n1`: the intracellular bacterial bioluminescence was inactive: 72.2%.

As to `Cc1cc2ccccc2n2c(=O)n(CC(C)NC(=O)c3ccc(C(N)=O)cc3F)nc12` (stereo not given), the intracellular bacterial bioluminescence was inactive: 77.4%.

Regarding `CC(=O)Nc1ccc(C(=O)CSc2nc(O)c3c(C)cc(C)nc3n2)cc1`, the intracellular bacterial bioluminescence is inactive: 130%.

Take `Oc1cccc(C2=NN3C(C2)c2ccccc2OC3c2ccccn2)c1` (stereo not given): the intracellular bacterial bioluminescence was inactive: 86.9%.
